Data taken from article PMC9911603.
Construct, isoform or probe ends are uncertain for at least one entry.

Test system: His-GacA (Pseudomonas mosselii 923)
Assay: EMSA
Conditions: EMSA on 4.5% nondenaturing polyacrylamide gel, Cy5 detection; binding buffer, pH and temperature not given; recombinant protein; protein details: His (pET28a, NdeI/XhoI)

| Sequence | binding result |
| --- | --- |
| GACGAGTAAGCGAATGCTTACACGCGATGCTACGAGGGTG (double strand) [PrsmZ probe (rsmZ promoter, 40 bp)] | binds |
| GTCGTGTAAGCCAAAGCTTACAAAAGCAGTCCTTGCACAA (double strand) [PrsmY probe (rsmY promoter, 40 bp)] | binds |
